Where two headings read alike, the source gives them in different places. No constants are given. Whether binding was seen depends on the method and setting. Binding seen in cells or lysates may run through a third protein. For part of these data: A result given as binding can be weak or reduced; the word gives no strength. For part of these data: Where a sequence is shown, tags or fusion partners need not be part of it. Values belong to the molecule of their own block, whether it stands above or below them.
Experiments:
[1] = biological target: T1, purified His-tagged Cap fragment protein of Piezo1 (mouse) (UniProt E2JF22); assay: pull-down
T1 sequence: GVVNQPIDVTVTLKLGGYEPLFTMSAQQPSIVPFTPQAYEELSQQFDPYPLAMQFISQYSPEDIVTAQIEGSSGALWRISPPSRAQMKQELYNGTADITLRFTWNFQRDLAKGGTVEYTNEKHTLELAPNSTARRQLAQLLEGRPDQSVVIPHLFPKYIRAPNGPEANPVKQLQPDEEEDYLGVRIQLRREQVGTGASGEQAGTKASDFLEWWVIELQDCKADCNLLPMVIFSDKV

The chains behind the UniProt entries cited, without tags or fusion partners. Where a name states a change or a piece, a line headed by the entry shows the natural chain unless it says otherwise.
UniProt Q8CD54: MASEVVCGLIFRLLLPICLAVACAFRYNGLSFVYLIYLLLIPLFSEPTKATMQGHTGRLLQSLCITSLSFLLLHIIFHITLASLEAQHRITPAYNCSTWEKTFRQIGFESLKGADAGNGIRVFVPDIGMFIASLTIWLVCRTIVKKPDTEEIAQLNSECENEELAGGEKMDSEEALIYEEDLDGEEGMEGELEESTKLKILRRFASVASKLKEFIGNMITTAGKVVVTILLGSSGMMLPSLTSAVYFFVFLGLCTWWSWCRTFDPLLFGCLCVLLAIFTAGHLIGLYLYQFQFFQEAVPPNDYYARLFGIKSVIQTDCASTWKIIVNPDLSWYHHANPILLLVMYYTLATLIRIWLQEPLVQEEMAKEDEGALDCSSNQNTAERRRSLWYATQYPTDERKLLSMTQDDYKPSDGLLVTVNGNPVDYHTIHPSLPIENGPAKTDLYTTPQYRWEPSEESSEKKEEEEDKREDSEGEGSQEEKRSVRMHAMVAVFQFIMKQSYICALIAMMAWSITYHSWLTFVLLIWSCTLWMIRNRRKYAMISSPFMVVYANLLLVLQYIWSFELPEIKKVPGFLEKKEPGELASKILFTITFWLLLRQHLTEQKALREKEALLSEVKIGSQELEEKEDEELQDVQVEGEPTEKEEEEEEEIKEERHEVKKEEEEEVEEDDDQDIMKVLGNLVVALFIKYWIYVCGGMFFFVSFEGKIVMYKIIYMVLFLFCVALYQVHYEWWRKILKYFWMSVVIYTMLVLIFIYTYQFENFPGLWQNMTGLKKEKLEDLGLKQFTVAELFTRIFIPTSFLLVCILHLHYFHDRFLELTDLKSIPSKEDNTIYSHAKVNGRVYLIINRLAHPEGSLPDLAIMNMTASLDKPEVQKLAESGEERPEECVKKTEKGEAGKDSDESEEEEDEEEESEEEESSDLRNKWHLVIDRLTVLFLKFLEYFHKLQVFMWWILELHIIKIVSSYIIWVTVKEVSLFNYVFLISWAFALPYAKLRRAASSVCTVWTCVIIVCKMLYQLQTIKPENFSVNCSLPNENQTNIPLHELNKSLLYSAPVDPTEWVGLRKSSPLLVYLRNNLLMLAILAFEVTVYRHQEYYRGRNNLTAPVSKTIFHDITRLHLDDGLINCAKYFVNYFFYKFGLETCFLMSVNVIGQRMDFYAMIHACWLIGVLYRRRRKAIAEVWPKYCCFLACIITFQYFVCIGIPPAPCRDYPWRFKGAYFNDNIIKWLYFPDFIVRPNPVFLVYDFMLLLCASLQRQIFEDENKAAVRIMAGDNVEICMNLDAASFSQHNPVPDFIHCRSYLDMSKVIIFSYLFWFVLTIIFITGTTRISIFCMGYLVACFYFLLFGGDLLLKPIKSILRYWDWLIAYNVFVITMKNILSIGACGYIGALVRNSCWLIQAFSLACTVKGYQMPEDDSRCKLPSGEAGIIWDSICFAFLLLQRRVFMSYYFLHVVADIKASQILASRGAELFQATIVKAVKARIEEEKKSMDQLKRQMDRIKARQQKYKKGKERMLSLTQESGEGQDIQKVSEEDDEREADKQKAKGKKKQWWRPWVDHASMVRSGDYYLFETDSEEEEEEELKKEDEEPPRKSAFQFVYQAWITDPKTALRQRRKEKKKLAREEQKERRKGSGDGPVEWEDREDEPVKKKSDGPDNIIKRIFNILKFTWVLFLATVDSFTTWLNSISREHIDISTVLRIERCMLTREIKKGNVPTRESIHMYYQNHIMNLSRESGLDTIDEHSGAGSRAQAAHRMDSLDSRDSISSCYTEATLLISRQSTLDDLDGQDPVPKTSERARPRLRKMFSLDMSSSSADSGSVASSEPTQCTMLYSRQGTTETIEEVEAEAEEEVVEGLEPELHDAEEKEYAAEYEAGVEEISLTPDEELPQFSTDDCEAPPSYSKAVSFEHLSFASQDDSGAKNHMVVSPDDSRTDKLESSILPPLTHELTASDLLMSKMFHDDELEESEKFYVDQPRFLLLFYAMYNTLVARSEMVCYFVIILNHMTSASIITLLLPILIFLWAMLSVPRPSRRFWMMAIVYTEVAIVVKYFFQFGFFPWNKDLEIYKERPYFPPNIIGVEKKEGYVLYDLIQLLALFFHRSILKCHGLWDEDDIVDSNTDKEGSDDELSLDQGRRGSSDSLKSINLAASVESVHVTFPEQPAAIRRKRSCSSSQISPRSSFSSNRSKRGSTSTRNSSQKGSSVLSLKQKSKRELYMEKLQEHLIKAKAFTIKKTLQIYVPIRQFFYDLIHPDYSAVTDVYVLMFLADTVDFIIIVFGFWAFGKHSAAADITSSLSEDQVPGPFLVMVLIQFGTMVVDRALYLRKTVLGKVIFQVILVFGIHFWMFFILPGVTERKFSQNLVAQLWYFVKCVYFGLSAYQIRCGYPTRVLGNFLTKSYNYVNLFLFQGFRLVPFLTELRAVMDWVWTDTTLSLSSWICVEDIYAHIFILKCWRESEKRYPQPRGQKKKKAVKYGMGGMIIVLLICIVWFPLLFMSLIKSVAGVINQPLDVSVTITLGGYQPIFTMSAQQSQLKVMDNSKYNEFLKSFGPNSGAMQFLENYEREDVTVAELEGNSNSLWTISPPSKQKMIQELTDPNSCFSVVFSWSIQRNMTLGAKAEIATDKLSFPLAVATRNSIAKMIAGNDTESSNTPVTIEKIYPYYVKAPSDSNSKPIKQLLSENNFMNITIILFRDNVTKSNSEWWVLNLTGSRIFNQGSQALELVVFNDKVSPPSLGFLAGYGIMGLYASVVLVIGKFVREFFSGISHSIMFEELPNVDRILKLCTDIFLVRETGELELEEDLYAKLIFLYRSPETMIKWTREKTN
UniProt F1PAA9: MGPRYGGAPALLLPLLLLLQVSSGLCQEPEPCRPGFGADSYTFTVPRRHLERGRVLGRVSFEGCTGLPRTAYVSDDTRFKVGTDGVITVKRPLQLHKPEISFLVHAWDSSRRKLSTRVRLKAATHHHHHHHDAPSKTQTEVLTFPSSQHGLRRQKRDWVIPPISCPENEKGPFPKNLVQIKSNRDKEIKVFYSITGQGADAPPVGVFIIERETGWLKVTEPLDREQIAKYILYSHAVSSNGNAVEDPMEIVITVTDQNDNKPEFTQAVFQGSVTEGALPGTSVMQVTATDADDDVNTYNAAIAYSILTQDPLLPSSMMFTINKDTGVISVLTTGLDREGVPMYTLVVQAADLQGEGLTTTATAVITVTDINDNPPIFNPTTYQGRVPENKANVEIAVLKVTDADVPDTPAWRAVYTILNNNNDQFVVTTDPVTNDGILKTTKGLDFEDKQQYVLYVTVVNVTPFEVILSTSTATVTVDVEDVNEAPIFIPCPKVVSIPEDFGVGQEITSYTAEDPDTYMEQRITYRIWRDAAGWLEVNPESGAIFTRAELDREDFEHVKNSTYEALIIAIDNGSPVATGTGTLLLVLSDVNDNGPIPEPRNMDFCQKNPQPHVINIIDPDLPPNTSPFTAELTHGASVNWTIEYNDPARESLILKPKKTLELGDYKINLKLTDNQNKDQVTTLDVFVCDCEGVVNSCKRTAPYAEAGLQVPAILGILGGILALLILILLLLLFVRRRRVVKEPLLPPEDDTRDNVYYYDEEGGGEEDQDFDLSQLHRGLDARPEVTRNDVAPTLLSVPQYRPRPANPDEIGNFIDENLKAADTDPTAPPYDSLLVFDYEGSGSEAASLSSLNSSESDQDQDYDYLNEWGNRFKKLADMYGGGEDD

[2] = biological target: Piezo1-GST fusion protein (Piezo1-pp-GST-IRES-GFP construct) (mouse) (UniProt E2JF22); assay: pull-down
[3] = biological target: Piezo1-GST fusion protein (Piezo1-pp-GST-IRES-GFP construct) (mouse) (UniProt E2JF22); assay: pull-down; remark: listed apart in the source
[4] = biological target: Piezo2-GST fusion protein (mouse) (UniProt Q8CD54); assay: pull-down
Piezo1-ΔCap (mouse) = Piezo1-ΔCap (mouse) (UniProt E2JF22); assay: pull-down
[5] = biological target: T2, Piezo1 pore module fragment, residues 2172-2547 (mouse) (UniProt E2JF22); assay: pull-down
T2 sequence: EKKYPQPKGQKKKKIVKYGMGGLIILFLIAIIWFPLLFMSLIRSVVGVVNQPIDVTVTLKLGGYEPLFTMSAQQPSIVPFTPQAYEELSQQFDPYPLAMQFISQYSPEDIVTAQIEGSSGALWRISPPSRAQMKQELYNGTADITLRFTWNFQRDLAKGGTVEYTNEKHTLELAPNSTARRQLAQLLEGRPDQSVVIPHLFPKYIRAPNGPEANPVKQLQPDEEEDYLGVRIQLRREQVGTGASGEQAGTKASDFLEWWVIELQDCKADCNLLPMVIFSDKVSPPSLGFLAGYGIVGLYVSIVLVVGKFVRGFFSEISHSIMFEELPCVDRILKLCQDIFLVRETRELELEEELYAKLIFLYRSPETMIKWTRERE

[6] = biological target: Piezo1-GST fusion protein (Piezo1-pp-GST-IRES-GFP construct) (mouse) (UniProt E2JF22); assay: pull-down; remark: listed apart in the source
[7] = biological target: Piezo1-GST fusion protein (Piezo1-pp-GST-IRES-GFP construct) (mouse) (UniProt E2JF22); assay: pull-down; remark: listed apart in the source
[8] = biological target: GFP-E-cadherin fusion protein (canine) (canine) (UniProt F1PAA9); assay: pull-down
[9] = biological target: Flag-tagged E-cadherin N-terminal ectodomain (ED), residues 1-711 (canine) (UniProt F1PAA9); assay: co-IP
[10] = biological target: Flag-tagged full-length E-cadherin (canine) (UniProt F1PAA9); assay: co-IP
[11] = biological target: Flag-tagged full-length E-cadherin (canine) (UniProt F1PAA9); assay: pull-down

binding [1]: binds | binding [2]: binds
Molecule: Flag-tagged E-cadherin N-terminal ectodomain (ED), residues 1-711 (from UniProt F1PAA9) (domain or fragment)

binding [1]: binds | binding [2]: binds
Molecule: Flag-tagged full-length E-cadherin (from UniProt F1PAA9)

binding [3]: binds | binding [4]: binds | binding (Piezo1-ΔCap (mouse)): binds | binding [5]: binds | binding [2]: binds | binding [6]: binds | binding [7]: no binding (only in the absence of Ca2+)
Molecule: GFP-E-cadherin fusion protein (canine) (from UniProt F1PAA9)

binding [8]: binds
Molecule: TEKKYPQPKGQKKKK (myristoylated at its N-terminus) [membrane-permeable linker-peptide of mouse Piezo1 (amino acids 2171-2185)]

binding [9]: binds | binding [10]: binds | binding [11]: binds
B1: purified His-tagged Cap fragment protein of Piezo1 (domain or fragment, UniProt E2JF22 2218-2453)
chain: T1 sequence

Source: article doi:10.1101/2020.05.12.092148
